These results are taken from PMC7571425 (Antiviral Research, 2020).

The assay concerns hPSC-CMs. As to the kind of experiment: Electrophysiological characterization of hPSC-CMs. The class given is cell-based, human. The following applies: 1 μM.

For the compound `COC(=O)C1=C(C)NC(C)=C(C(=O)OC)C1c1ccccc1[N+](=O)[O-]` [nifedipine, Nifedipine], the “action potential duration (APD) and repolarization” value is given as “shortened”.
